# Experimental data published in patent publication US8741944B2, “Anti-infective agents against intracellular pathogens” (priority 2007, dated 2014).
# Columns and labels:
# SR (Leukemia) = experiment: NCI DTP tumor cell line screen (SRB), SR
# M14 (Melanoma) = experiment: NCI DTP tumor cell line screen (SRB), M14
# [1] = system: EKVX (Non-Small Cell Lung Cancer); experiment: NCI DTP tumor cell line screen (SRB), EKVX
# HT29 (Colon Cancer) = experiment: NCI DTP tumor cell line screen (SRB), HT29
# KM12 (Colon Cancer) = experiment: NCI DTP tumor cell line screen (SRB), KM12
# ACHN (Renal Cancer) = experiment: NCI DTP tumor cell line screen (SRB), ACHN
# K-562 (Leukemia) = experiment: NCI DTP tumor cell line screen (SRB), K-562
# SN12C (Renal Cancer) = experiment: NCI DTP tumor cell line screen (SRB), SN12C
# [2] = system: HOP-62 (Non-Small Cell Lung Cancer); experiment: NCI DTP tumor cell line screen (SRB), HOP-62
# [3] = system: HOP-92 (Non-Small Cell Lung Cancer); experiment: NCI DTP tumor cell line screen (SRB), HOP-92
# HCT-15 (Colon Cancer) = experiment: NCI DTP tumor cell line screen (SRB), HCT-15
# DU-145 (Prostate Cancer) = experiment: NCI DTP tumor cell line screen (SRB), DU-145
# OVCAR-3 (Ovarian Cancer) = experiment: NCI DTP tumor cell line screen (SRB), OVCAR-3
# OVCAR-8 (Ovarian Cancer) = experiment: NCI DTP tumor cell line screen (SRB), OVCAR-8
# RXF 393 (Renal Cancer) = experiment: NCI DTP tumor cell line screen (SRB), RXF 393
# [4] = system: NCI-H460 (Non-Small Cell Lung Cancer)
# RPMI-8226 (Leukemia) = experiment: NCI DTP tumor cell line screen (SRB), RPMI-8226
# [5] = system: MDA-MB-435 (Breast Cancer); experiment: NCI DTP tumor cell line screen (SRB), MDA-MB-435
substance,measurement,setting,value
4-[5-(2-Phenanthrenyl)-3-(trifluoromethyl)-1H-pyrazol-1-yl]-phenyl -guanidine [Compound 71],Mean Optical Densities,SR (Leukemia); Log10 Concentration −4.0,0.287
same,Mean Optical Densities,SR (Leukemia); Log10 Concentration −5.0,0.234
same,Mean Optical Densities,SR (Leukemia); Log10 Concentration −6.0,0.254
same,Mean Optical Densities,SR (Leukemia); Log10 Concentration −7.0,0.583
same,Mean Optical Densities,SR (Leukemia); Log10 Concentration −8.0,0.688
same,Mean Optical Densities,"M14 (Melanoma); M14, Log10 Concentration −4.0",0.210
same,Mean Optical Densities,"M14 (Melanoma); M14, Log10 Concentration −5.0",−0.004
same,Mean Optical Densities,"M14 (Melanoma); M14, Log10 Concentration −6.0",0.816
same,Mean Optical Densities,"M14 (Melanoma); M14, Log10 Concentration −7.0",0.823
same,Mean Optical Densities,"M14 (Melanoma); M14, Log10 Concentration −8.0",0.772
same,Mean Optical Densities,[1]; Log10 Concentration −4.0,0.145
same,Mean Optical Densities,[1]; Log10 Concentration −5.0,−0.008
same,Mean Optical Densities,[1]; Log10 Concentration −6.0,0.711
same,Mean Optical Densities,[1]; Log10 Concentration −7.0,0.737
same,Mean Optical Densities,[1]; Log10 Concentration −8.0,0.713
same,Mean Optical Densities,"HT29 (Colon Cancer); HT29, Log10 Concentration −4.0",0.003
same,Mean Optical Densities,"HT29 (Colon Cancer); HT29, Log10 Concentration −5.0",−0.054
same,Mean Optical Densities,"HT29 (Colon Cancer); HT29, Log10 Concentration −6.0",1.136
same,Mean Optical Densities,"HT29 (Colon Cancer); HT29, Log10 Concentration −7.0",1.238
same,Mean Optical Densities,"HT29 (Colon Cancer); HT29, Log10 Concentration −8.0",1.276
same,Mean Optical Densities,"KM12 (Colon Cancer); KM12, Log10 Concentration −4.0",0.307
same,Mean Optical Densities,"KM12 (Colon Cancer); KM12, Log10 Concentration −5.0",0.013
same,Mean Optical Densities,"KM12 (Colon Cancer); KM12, Log10 Concentration −6.0",1.777
same,Mean Optical Densities,"KM12 (Colon Cancer); KM12, Log10 Concentration −7.0",1.832
same,Mean Optical Densities,"KM12 (Colon Cancer); KM12, Log10 Concentration −8.0",1.867
same,Mean Optical Densities,ACHN (Renal Cancer); Log10 Concentration −4.0,0.291
same,Mean Optical Densities,ACHN (Renal Cancer); Log10 Concentration −5.0,0.034
same,Mean Optical Densities,ACHN (Renal Cancer); Log10 Concentration −6.0,0.964
same,Mean Optical Densities,ACHN (Renal Cancer); Log10 Concentration −7.0,0.902
same,Mean Optical Densities,ACHN (Renal Cancer); Log10 Concentration −8.0,0.898
same,Mean Optical Densities,"K-562 (Leukemia); K-562, Log10 Concentration −4.0",0.119
same,Mean Optical Densities,"K-562 (Leukemia); K-562, Log10 Concentration −5.0",0.126
same,Mean Optical Densities,"K-562 (Leukemia); K-562, Log10 Concentration −6.0",0.438
same,Mean Optical Densities,"K-562 (Leukemia); K-562, Log10 Concentration −7.0",1.283
same,Mean Optical Densities,"K-562 (Leukemia); K-562, Log10 Concentration −8.0",1.338
same,Mean Optical Densities,SN12C (Renal Cancer); Log10 Concentration −4.0,0.224
same,Mean Optical Densities,SN12C (Renal Cancer); Log10 Concentration −5.0,−0.014
same,Mean Optical Densities,SN12C (Renal Cancer); Log10 Concentration −6.0,1.045
same,Mean Optical Densities,SN12C (Renal Cancer); Log10 Concentration −7.0,0.998
same,Mean Optical Densities,SN12C (Renal Cancer); Log10 Concentration −8.0,1.050
same,Mean Optical Densities,"[2]; HOP-62, Log10 Concentration −4.0",0.329
same,Mean Optical Densities,"[2]; HOP-62, Log10 Concentration −5.0",0.011
same,Mean Optical Densities,"[2]; HOP-62, Log10 Concentration −6.0",1.255
same,Mean Optical Densities,"[2]; HOP-62, Log10 Concentration −7.0",1.267
same,Mean Optical Densities,"[2]; HOP-62, Log10 Concentration −8.0",1.285
same,Mean Optical Densities,"[3]; HOP-92, Log10 Concentration −4.0",0.767
same,Mean Optical Densities,"[3]; HOP-92, Log10 Concentration −5.0",0.089
same,Mean Optical Densities,"[3]; HOP-92, Log10 Concentration −6.0",1.361
same,Mean Optical Densities,"[3]; HOP-92, Log10 Concentration −7.0",1.541
same,Mean Optical Densities,"[3]; HOP-92, Log10 Concentration −8.0",1.567
same,Mean Optical Densities,"HCT-15 (Colon Cancer); HCT-15, Log10 Concentration −4.0",0.082
same,Mean Optical Densities,"HCT-15 (Colon Cancer); HCT-15, Log10 Concentration −5.0",−0.003
same,Mean Optical Densities,"HCT-15 (Colon Cancer); HCT-15, Log10 Concentration −6.0",0.797
same,Mean Optical Densities,"HCT-15 (Colon Cancer); HCT-15, Log10 Concentration −7.0",0.779
same,Mean Optical Densities,"HCT-15 (Colon Cancer); HCT-15, Log10 Concentration −8.0",0.669
same,Mean Optical Densities,"DU-145 (Prostate Cancer); DU-145, Log10 Concentration −4.0",−0.019
same,Mean Optical Densities,"DU-145 (Prostate Cancer); DU-145, Log10 Concentration −5.0",−0.074
same,Mean Optical Densities,"DU-145 (Prostate Cancer); DU-145, Log10 Concentration −6.0",0.760
same,Mean Optical Densities,"DU-145 (Prostate Cancer); DU-145, Log10 Concentration −7.0",0.767
same,Mean Optical Densities,"DU-145 (Prostate Cancer); DU-145, Log10 Concentration −8.0",0.694
same,Mean Optical Densities,"OVCAR-3 (Ovarian Cancer); OVCAR-3, Log10 Concentration −4.0",0.131
same,Mean Optical Densities,"OVCAR-3 (Ovarian Cancer); OVCAR-3, Log10 Concentration −5.0",−0.043
same,Mean Optical Densities,"OVCAR-3 (Ovarian Cancer); OVCAR-3, Log10 Concentration −6.0",0.770
same,Mean Optical Densities,"OVCAR-3 (Ovarian Cancer); OVCAR-3, Log10 Concentration −7.0",0.792
same,Mean Optical Densities,"OVCAR-3 (Ovarian Cancer); OVCAR-3, Log10 Concentration −8.0",0.833
same,Mean Optical Densities,"OVCAR-8 (Ovarian Cancer); OVCAR 8, Log10 Concentration −4.0",0.126
same,Mean Optical Densities,"OVCAR-8 (Ovarian Cancer); OVCAR 8, Log10 Concentration −5.0",−0.001
same,Mean Optical Densities,"OVCAR-8 (Ovarian Cancer); OVCAR 8, Log10 Concentration −6.0",0.934
same,Mean Optical Densities,"OVCAR-8 (Ovarian Cancer); OVCAR 8, Log10 Concentration −7.0",0.946
same,Mean Optical Densities,"OVCAR-8 (Ovarian Cancer); OVCAR 8, Log10 Concentration −8.0",0.923
same,Mean Optical Densities,"RXF 393 (Renal Cancer); RXF 383, Log10 Concentration −4.0",0.385
same,Mean Optical Densities,"RXF 393 (Renal Cancer); RXF 383, Log10 Concentration −5.0",0.156
same,Mean Optical Densities,"RXF 393 (Renal Cancer); RXF 383, Log10 Concentration −6.0",0.629
same,Mean Optical Densities,"RXF 393 (Renal Cancer); RXF 383, Log10 Concentration −7.0",0.629
same,Mean Optical Densities,"RXF 393 (Renal Cancer); RXF 383, Log10 Concentration −8.0",0.582
same,Mean Optical Densities,"[4]; NCI-H460, Log10 Concentration −4.0",0.257
same,Mean Optical Densities,"[4]; NCI-H460, Log10 Concentration −5.0",0.011
same,Mean Optical Densities,"[4]; NCI-H460, Log10 Concentration −6.0",1.650
same,Mean Optical Densities,"[4]; NCI-H460, Log10 Concentration −7.0",1.658
same,Mean Optical Densities,"[4]; NCI-H460, Log10 Concentration −8.0",1.654
same,Mean Optical Densities,"RPMI-8226 (Leukemia); RPMI-8226, Log10 Concentration −4.0",0.176
same,Mean Optical Densities,"RPMI-8226 (Leukemia); RPMI-8226, Log10 Concentration −5.0",0.016
same,Mean Optical Densities,"RPMI-8226 (Leukemia); RPMI-8226, Log10 Concentration −6.0",0.513
same,Mean Optical Densities,"RPMI-8226 (Leukemia); RPMI-8226, Log10 Concentration −7.0",0.559
same,Mean Optical Densities,"RPMI-8226 (Leukemia); RPMI-8226, Log10 Concentration −8.0",0.536
same,Mean Optical Densities,"[5]; MDA-MB-435, Log10 Concentration −4.0",0.295
same,Mean Optical Densities,"[5]; MDA-MB-435, Log10 Concentration −5.0",−0.073
same,Mean Optical Densities,"[5]; MDA-MB-435, Log10 Concentration −6.0",1.444
same,Mean Optical Densities,"[5]; MDA-MB-435, Log10 Concentration −7.0",1.382
same,Mean Optical Densities,"[5]; MDA-MB-435, Log10 Concentration −8.0",1.376

# Where two headings read alike, the source gives them in different places.
